These are yes or no findings as the source states them, for the method shown.
How the values were obtained:
[1] = target: Aer-PAS-GVV (Aer 7–135 S28G A65V A99V, the Aer PAS triple mutant) (E. coli) (UniProt P50466); assay: SEC; Superdex S75 preparatory column, after nickel–nitrilotriacetic acid elution; both purified
[2] = target: Aer-PAS-GVV (Aer 7–135 S28G A65V A99V, the Aer PAS triple mutant) (E. coli) (UniProt P50466); assay: SEC-SAXS; about 100 μl at 4.5 to 5.5 mg/ml on a Superdex 75 Increase column in 50 mM HEPES pH 8.0, 150 mM KCl, 10 mM MgCl2; molecular weight from the SAXS-derived Porod volume; both purified

The chains behind the UniProt entries cited, without tags or fusion partners. Where a name states a change or a piece, a line headed by the entry shows the natural chain unless it says otherwise.
UniProt P50466: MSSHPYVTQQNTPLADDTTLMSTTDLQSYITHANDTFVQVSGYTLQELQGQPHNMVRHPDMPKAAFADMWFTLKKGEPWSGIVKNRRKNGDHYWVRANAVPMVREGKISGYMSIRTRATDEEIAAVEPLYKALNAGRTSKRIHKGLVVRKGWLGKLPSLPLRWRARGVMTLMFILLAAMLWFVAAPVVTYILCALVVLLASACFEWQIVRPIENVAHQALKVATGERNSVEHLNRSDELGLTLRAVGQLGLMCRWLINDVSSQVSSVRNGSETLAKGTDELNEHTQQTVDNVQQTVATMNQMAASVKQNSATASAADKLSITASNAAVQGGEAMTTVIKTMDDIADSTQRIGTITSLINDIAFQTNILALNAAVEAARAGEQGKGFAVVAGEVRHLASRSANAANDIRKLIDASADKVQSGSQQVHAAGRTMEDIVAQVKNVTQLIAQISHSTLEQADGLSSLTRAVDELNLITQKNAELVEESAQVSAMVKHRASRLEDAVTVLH

**Q.** Which binding [1] does the source give for “Aer-PAS-GVV (Aer 7–135 S28G A65V A99V, the Aer PAS triple mutant) (from UniProt P50466 7-135) (domain or fragment)” here?
**A.** The binding was “no binding”.

**Q.** And the binding [2]?
**A.** The binding was “no binding (tested: 4.5 to 5.5 mg/ml)”.
